Source: patent publication US20080004266A1, “Method for treating proliferative disorders associated with protooncogene products” (priority 2006, published 2008)
For at least one compound, name, drawing or mass did not settle the structure.

How the values were obtained:
Her2 = assay: Degradation of Her2 in BT-474 cells (Western blot, Method 1); assay type: cell-based, human; settings: overnight
[1] = tested on: human tumor cell line MDA-MB-435S; assay: MDA-MB-435S nude mouse xenograft model; assay type: in vivo; settings: nude mice, 300 mg/kg body weight IP, 5 times per week for 3 weeks; compared with 100 mg/kg 17-AAG
Method: FBS was obtained from Sigma-Aldrich Corp. (St. Louis, Mo., USA), and all other reagents were obtained from Invitrogen Corp. (Carlsbad, Calif., USA). Approximately 4−5×10 (6) cells that had been cryopreserved in liquid nitrogen were rapidly thawed at 37° C. and transferred to a 175 cm^2 tissue culture flask containing 50 ml of growth media and then incubated at 37° C. in a 5% CO2 incubator. The growth media was replaced every 2-3 days until the flask became 90% confluent, typically in 5-7 days. To passage and expand the cell line, a 90% confluent flask was washed with 10 ml of room temperature phosphate buffered saline (PBS) and the cells were disassociated by adding 5 ml 1× Trypsin-EDTA (Invitrogen) and incubating at 37° C. until the cells detached from the surface of the flask. To inactivate the trypsin, 5 ml of growth media was added and then the contents of the flask were centrifuged to pellet the cells. The supernatant was aspirated and the cell pellet was resuspended in 10 ml of growth media and the cell number determined using a hemocytometer. […]
Six to eight week old, female Crl:CD-1-nuBR (nude) mice were obtained from Charles River Laboratories (Wilmington, Mass., USA). […] Tumor volumes (V) were calculated by caliper measurement of the width (W), length (L) and thickness (T) of tumors using the following formula: V=[…]×(L×W×T). […]

Hsp90 protein = assay: Malachite Green assay of ATPase activity of Hsp90 protein; assay type: biochemical
EGFRvIII = settings: cited from earlier work
Bcr-Abl = settings: cited from earlier work

CCc1cc(-c2nnc(S)n2-c2cccc3ccccc23)c(O)cc1O [Compound 49, 3-(2,4-Di-hydroxy-5-ethyl-phenyl)-4-(naphthalen-1-yl)-5-mercapto-triazole]
degradation of Her2 (Her2; 0.5 μM): partial degradated
degradation of Her2 (Her2; 2 μM): complete degradation
degradation of Her2 (Her2; 5 μM): complete degradation
in vivo growth rate of MDA-MB-435S tumors [1]: decreased the growth rate

Oc1ccc(-c2nnc(S)n2-c2cccc3ccccc23)c(O)c1 [Compound 108, 3-(2,4-Di-hydroxy-phenyl)-4-(naphthalen-1-yl)-5-mercapto-triazole]
ATPase activity of Hsp90 (Hsp90 protein; 4 μM): significant inhibition
ATPase activity of Hsp90 (Hsp90 protein; 40 μM): even greater inhibition of ATPase activity of Hsp90 than geldanamycin
degradation of Her2 (Her2; 0.5 μM): partially degradated
degradation of Her2 (Her2; 2 μM): partially degradated
degradation of Her2 (Her2; 5 μM): almost completely degraded

COC1=C2C[C@@H](C)C[C@H](OC)[C@H](O)[C@@H](C)/C=C(\C)[C@H](OC(N)=O)[C@@H](OC)/C=C\C=C(/C)C(=O)NC(=CC1=O)C2=O [geldanamycin]
expression of EGFRvIII (EGFRvIII): decrease the expression of EGFRvIII
apoptosis in Bcr-Abl leukemia cells (Bcr-Abl): induces apoptosis
